Laboratory results: paper doi:10.1101/823096
These are yes or no findings as the source states them, for the method shown. In cells and extracts the contact can be indirect. Some results given as binding are weak or reduced against the parent protein; the word gives no strength.

Chains of the proteins cited; added tags and fusions are not shown.
UniProt P03081, whole entry: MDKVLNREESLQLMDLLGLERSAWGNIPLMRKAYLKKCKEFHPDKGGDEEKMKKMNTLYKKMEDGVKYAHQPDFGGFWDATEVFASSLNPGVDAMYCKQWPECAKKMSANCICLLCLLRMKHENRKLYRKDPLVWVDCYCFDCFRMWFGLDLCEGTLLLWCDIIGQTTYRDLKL
UniProt P03083, whole entry: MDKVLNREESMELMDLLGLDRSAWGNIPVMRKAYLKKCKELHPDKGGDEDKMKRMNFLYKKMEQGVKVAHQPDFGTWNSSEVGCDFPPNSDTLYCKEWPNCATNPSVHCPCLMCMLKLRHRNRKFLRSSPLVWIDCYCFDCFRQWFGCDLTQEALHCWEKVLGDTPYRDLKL
UniProt P30153, whole entry: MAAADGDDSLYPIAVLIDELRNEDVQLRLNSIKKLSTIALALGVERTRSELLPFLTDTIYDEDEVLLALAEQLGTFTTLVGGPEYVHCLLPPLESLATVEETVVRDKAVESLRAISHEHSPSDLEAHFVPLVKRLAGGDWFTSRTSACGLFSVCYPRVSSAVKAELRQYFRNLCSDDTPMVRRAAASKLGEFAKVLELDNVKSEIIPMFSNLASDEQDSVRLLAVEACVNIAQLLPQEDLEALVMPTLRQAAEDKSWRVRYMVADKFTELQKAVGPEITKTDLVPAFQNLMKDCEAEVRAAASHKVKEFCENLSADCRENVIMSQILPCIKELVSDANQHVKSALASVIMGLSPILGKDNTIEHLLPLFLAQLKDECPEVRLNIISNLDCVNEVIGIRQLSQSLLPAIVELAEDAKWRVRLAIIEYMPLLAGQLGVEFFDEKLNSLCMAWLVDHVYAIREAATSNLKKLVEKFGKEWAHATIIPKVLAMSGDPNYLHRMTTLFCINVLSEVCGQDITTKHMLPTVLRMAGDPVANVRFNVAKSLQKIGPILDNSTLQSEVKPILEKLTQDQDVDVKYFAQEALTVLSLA
UniProt P67775, whole entry: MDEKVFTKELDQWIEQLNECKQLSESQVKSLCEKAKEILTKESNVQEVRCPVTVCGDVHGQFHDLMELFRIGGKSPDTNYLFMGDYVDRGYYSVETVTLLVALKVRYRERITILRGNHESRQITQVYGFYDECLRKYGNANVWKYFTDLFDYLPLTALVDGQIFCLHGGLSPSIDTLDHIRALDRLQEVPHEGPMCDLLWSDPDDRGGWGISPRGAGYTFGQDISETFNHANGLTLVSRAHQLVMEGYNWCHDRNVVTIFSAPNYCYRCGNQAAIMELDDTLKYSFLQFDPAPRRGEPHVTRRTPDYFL
UniProt Q5VSL9, whole entry: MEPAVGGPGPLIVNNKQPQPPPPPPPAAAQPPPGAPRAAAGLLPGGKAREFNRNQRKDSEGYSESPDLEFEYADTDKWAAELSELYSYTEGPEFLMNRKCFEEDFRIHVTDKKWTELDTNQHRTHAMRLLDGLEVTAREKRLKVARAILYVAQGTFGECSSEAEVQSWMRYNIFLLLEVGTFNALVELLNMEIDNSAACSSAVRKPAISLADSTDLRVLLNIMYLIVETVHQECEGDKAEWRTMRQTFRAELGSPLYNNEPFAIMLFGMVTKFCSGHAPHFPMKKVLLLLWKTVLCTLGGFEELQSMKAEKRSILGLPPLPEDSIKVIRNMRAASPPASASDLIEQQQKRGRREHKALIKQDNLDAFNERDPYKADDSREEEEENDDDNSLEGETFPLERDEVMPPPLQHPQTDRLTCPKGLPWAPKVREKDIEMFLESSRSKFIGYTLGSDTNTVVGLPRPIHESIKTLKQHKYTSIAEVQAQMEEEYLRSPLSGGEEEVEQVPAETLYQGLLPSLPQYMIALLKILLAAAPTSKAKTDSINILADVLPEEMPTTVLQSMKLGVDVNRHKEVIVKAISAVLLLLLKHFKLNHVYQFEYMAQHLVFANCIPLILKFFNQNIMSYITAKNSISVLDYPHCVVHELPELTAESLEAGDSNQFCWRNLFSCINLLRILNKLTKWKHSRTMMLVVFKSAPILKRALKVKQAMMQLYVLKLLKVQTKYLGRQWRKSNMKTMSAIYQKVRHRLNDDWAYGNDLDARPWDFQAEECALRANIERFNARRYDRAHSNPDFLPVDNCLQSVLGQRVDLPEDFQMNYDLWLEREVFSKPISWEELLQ
UniProt O95819, whole entry: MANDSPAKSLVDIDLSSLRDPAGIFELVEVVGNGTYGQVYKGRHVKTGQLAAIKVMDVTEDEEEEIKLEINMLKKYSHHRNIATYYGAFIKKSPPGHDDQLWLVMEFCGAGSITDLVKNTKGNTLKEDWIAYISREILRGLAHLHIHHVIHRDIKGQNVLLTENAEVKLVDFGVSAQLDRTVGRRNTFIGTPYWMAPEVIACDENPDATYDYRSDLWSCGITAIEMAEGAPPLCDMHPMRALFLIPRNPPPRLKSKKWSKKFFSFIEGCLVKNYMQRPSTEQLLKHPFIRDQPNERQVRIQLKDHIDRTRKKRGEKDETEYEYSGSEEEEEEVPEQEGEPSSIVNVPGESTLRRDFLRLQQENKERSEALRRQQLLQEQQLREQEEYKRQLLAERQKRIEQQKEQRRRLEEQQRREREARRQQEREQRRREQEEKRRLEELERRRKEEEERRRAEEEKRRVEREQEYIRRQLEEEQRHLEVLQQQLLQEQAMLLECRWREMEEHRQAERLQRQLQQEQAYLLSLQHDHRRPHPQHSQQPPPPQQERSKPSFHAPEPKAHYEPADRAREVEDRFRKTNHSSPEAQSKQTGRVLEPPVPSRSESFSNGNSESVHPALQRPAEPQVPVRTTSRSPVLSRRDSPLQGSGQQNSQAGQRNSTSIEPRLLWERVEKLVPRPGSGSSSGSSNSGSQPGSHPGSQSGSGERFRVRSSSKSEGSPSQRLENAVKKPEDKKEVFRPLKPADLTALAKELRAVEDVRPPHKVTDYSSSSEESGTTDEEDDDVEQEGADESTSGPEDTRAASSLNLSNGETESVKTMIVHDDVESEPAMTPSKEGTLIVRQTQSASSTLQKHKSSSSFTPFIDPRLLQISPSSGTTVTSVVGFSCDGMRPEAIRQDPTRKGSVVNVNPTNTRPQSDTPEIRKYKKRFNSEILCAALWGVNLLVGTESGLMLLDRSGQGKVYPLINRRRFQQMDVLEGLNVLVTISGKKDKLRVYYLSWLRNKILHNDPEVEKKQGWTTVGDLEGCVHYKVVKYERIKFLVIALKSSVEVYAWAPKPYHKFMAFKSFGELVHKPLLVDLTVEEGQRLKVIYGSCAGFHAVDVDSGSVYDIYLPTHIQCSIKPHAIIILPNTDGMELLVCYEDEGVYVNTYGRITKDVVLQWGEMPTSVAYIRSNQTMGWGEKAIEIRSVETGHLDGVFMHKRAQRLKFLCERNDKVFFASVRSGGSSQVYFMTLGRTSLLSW

B1: STRN3, endogenous (protein, UniProt Q13033 1-797)
chain: MDELAGGGGGGPGMAAPPRQQQGPGGNLGLSPGGNGAAGGGGPPASEGAGPAAGPELSRPQQYTIPGILHYIQHEWARFEMERAHWEVERAELQARIAFLQGERKGQENLKKDLVRRIKMLEYALKQERAKYHKLKYGTELNQGDLKMPTFESEETKDTEAPTAPQNSQLTWKQGRQLLRQYLQEVGYTDTILDVRSQRVRSLLGLSNSEPNGSVETKNLEQILNGGESPKQKGQEIKRSSGDVLETFNFLENADDSDEDEENDMIEGIPEGKDKHRMNKHKIGNEGLAADLTDDPDTEEALKEFDFLVTAEDGEGAGEARSSGDGTEWDKDDLSPTAEVWDVDQGLISKLKEQYKKERKGKKGVKRANRTKLYDMIADLGDDELPHIPSGIINQSRSASTRMTDHEGARAEEAEPITFPSGGGKSFIMGSDDVLLSVLGLGDLADLTVTNDADYSYDLPANKDAFRKTWNPKYTLRSHFDGVRALAFHPVEPVLVTASEDHTLKLWNLQKTVPAKKSASLDVEPIYTFRAHIGPVLSLAISSNGEQCFSGGIDATIQWWNMPSPSVDPYDTYEPNVLAGTLVGHTDAVWGLAYSGIKNQLLSCSADGTVRLWNPQEKLPCICTYNGDKKHGIPTSVDFIGCDPAHMVTSFNTGSAVIYDLETSQSLVILSSQVDSGLQSNNHINRVVSHPTLPVTITAHEDRHIKFFDNKTGKMIHSMVAHLDAVTSLAVDPNGIYLMSGSHDCSIRLWNLDSKTCVQEITAHRKKLDESIYDVAFHSSKAYIASAGADALAKVFV

Assays:
[1] = target: SV40 Small T antigen, C-terminal Flag-HA tagged (CTAP-SV40 ST) (SV40) (UniProt P03081); assay: co-IP
[2] = target: JCPyV-Mad1 Small T antigen, C-terminal Flag-HA tagged (JCPyV, strain Mad1) (UniProt P03083); assay: co-IP

Molecule	binding [1]	binding [2]
PP2A Aα subunit (PPP2R1A), endogenous (from UniProt P30153 1-589)	binds	–
PP2A Cα subunit, endogenous (from UniProt P67775 1-309) (enzyme)	binds	binds
STRIP1, endogenous (from UniProt Q5VSL9 1-837)	binds	binds
mitogen-activated protein kinase kinase kinase kinase 4 (MAP4K4), endogenous (from UniProt O95819 1-1239) (enzyme)	binds	no binding
B1	–	binds
